Screening data, single-dose tests

By UniProt entry, the sequences of proteins in these tests, tags left out. Residues count along the entry.
UniProt P9WNZ1, whole entry: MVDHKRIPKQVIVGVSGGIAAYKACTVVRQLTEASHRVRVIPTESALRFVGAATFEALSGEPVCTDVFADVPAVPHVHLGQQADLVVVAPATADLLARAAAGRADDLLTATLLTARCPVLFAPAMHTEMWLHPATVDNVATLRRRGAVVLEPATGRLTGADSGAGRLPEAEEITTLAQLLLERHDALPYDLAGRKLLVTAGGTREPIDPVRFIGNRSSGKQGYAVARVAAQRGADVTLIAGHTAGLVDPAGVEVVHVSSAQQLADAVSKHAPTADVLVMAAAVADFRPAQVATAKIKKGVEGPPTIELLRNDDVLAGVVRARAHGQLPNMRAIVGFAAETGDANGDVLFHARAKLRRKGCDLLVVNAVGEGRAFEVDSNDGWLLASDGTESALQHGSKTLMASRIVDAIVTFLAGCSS
UniProt I6X8D2, whole entry: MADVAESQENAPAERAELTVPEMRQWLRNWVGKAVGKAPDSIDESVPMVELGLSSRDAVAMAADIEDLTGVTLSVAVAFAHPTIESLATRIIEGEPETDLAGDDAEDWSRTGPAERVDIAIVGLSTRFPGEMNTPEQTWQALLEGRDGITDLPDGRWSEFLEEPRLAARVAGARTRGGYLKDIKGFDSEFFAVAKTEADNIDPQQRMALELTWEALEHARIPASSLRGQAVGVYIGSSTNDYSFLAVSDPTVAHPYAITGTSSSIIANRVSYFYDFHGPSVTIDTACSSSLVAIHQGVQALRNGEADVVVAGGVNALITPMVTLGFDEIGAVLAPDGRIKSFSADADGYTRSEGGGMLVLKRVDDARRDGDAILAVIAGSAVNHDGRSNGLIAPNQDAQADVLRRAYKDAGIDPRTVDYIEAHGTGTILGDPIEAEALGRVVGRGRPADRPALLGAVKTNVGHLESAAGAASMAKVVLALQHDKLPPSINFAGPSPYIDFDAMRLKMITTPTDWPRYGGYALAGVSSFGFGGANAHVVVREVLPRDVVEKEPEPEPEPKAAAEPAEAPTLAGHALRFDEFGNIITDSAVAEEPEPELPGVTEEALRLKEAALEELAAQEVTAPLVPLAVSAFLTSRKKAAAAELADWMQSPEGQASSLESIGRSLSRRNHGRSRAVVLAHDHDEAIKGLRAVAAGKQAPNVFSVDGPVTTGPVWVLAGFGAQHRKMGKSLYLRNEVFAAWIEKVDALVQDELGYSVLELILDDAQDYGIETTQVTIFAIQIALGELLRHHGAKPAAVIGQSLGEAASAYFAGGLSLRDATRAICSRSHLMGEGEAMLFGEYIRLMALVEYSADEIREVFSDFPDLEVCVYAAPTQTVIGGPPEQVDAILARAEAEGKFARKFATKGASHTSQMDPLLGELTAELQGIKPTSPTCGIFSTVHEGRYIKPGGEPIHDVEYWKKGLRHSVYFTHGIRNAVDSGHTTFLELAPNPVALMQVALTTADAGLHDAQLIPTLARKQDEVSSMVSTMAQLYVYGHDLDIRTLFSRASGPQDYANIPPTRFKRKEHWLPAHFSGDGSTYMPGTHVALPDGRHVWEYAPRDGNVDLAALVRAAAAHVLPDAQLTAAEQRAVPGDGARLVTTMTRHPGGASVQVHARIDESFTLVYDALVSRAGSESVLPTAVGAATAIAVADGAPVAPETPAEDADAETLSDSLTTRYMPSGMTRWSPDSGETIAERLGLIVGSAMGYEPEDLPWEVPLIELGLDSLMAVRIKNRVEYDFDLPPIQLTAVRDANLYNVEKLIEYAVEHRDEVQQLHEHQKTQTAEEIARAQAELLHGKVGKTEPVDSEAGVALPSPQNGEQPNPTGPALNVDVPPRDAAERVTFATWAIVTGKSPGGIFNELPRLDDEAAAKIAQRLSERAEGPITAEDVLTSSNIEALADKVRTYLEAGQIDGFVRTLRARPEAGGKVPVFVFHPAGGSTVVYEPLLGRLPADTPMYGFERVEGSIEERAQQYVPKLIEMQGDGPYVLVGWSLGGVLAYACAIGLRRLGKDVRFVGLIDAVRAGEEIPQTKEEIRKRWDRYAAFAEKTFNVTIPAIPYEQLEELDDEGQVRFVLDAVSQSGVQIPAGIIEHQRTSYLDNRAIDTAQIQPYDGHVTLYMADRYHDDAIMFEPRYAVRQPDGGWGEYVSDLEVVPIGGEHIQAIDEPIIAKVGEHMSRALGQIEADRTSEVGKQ
UniProt P9WPC5, whole entry: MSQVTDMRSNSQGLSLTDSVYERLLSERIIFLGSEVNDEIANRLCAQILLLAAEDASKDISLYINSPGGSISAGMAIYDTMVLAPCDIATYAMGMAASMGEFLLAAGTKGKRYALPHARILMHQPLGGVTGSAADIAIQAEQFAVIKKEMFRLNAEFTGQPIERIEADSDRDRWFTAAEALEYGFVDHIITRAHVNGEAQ
UniProt P9WPC3, whole entry partner: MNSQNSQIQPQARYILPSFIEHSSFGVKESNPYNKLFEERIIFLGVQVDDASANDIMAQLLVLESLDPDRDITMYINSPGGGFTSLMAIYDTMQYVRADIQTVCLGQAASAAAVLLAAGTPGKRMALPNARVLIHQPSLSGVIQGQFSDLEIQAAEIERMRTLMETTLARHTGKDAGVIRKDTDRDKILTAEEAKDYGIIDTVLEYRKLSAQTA
UniProt A4I591, 1-473: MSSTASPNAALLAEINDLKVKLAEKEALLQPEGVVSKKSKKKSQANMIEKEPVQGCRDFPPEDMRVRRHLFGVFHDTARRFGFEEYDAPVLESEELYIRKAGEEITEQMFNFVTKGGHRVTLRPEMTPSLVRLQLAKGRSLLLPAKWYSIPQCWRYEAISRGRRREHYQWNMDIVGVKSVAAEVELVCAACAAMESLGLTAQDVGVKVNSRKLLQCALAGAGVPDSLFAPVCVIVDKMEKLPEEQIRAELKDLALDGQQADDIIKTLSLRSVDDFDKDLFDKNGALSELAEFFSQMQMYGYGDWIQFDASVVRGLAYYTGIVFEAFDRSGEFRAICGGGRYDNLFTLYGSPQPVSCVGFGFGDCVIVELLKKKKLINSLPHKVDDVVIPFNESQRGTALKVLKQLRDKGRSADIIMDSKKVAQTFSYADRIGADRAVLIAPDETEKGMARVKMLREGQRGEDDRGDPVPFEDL
UniProt P9WFT3, whole entry: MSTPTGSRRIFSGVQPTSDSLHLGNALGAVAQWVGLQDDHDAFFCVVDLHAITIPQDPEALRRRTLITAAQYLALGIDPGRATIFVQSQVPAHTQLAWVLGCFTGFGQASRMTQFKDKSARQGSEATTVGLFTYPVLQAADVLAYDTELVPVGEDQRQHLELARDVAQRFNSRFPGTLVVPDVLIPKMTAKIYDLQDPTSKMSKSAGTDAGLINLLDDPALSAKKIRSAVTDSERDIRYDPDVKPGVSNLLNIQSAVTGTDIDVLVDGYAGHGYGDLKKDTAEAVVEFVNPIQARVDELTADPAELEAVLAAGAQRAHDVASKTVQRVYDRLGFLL

CoaBC: 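Coenzyme A biosynthesis protein CoaBC, Mycobacterium tuberculosis (UniProt P9WNZ1). Enzyme assay of CoaBC with a phosphate dye (Biomol Green) read at 650 nm. Concentration: 30 µM. Higher reads as stronger inhibition, judged from the few compounds that gave an IC50. Most strong results did not repeat in a second test. Size under these conditions: about 67,000 compounds, about 40 of them at 50% or above in at least one test.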
Pks13 thioesterase: 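Enzyme assay of the thioesterase domain of polyketide synthase 13; the read-out is not stated. Target: Polyketide synthase Pks13, Mycobacterium tuberculosis (UniProt I6X8D2). Compounds at 30 µM. Higher reads as stronger inhibition (inferred from which compounds were picked for retests). Of about 67,000 compounds tested this way, about 300 (0.46%) reached 50% or more in at least one test.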
ClpP1P2: 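Protease assay of ClpP1P2, read by the AMC dye that it sets free. Target: ClpP1P2, Mycobacterium tuberculosis (UniProt P9WPC5 and UniProt P9WPC3). Concentration: 50 µM. Higher reads as stronger inhibition, judged from the few compounds that gave an IC50. Most other retested compounds had strongly negative values. Size under these conditions: about 69,000 compounds, about 10 of them at 50% or above in at least one test.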
Toxoplasma: 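Assay of Toxoplasma gondii numbers, read through their beta-galactosidase reporter with a colour substrate. Tested at 10 µM. The record gives no direction; the compounds picked for IC50 retests had high values, so higher reads as fewer parasites. Size under these conditions: about 67,000 compounds, about 260 of them at 50% or above in at least one test.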
LiHisRS: 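Enzyme assay of histidyl-tRNA synthetase; the read-out is not stated. Target: Histidine-tRNA ligase, Leishmania infantum (UniProt A4I591). Compounds at 30 µM. Direction is inferred from retests: higher values go with stronger inhibition. The assay is labelled LdHisRS but filed under L. infantum. About 69,000 compounds were tested under these conditions; 0.6% (about 410) showed 50% or more at least once.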
MtTrpRS: 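Tryptophan-tRNA ligase, Mycobacterium tuberculosis (UniProt P9WFT3). Enzyme assay of tryptophanyl-tRNA synthetase; the read-out is not stated. Concentration: 10 µM. Direction is not recorded; retested compounds ran higher, which suggests that high means inhibition. About 65,000 compounds were tested under these conditions; 0.098% (about 64) showed 50% or more at least once.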

Values are the deposited “Percent Effect”, in %. How 0% and 100% were set is not recorded. Most values in the screen are low, and negative values occur. Compounds were drawn at random from those tested, without regard to their results. A dash means the value is not listed here; it may have been measured.

compound	CoaBC	Pks13 thioesterase	ClpP1P2	Toxoplasma	LiHisRS	MtTrpRS
COCC1CCN(S(=O)(=O)NCC2COc3ccccc3C2)CC1 (centres unmarked)	1.015%	7.545%	-12.97%	12.32%	10.59%	-2.389%
CSCC(=O)N1CCOC(c2nc(C)n[nH]2)C1 (centres unmarked)	1.337%	-	1.272%	-	6.522%	1.125%
COCCN1CCN(Cc2c(C3CCNCC3)[nH]c3ncccc23)CC1.Cl	-	-	-	15.4%	-	-
Cc1ccc(-c2cc(N)c(=O)n(C(C)C(=O)NCC3CCCCC3)n2)s1 (centres unmarked)	3.594%	-58.54%	8.596%	8.393%	12%	-
COCCN1CCN(S(=O)(=O)C2CC2)Cc2ccc(C)nc21	1.025%	0.1203%	-10.86%	-	16%	-4.026%
CC(C)(C)S(=O)(=O)c1ccc(N2CCN(c3ccccc3)CC2)nn1	11.21%	-31.58%	4.413%	17.12%	13.91%	-3.267%
CCc1n[nH]c(C2CN(Cc3nnc(C4CC4)n3C)CCO2)n1 (centres unmarked)	2.051%	11.8%	24.01%	10.69%	16%	-2.267%
O=C1C(NCc2nnc3n2CCCC3)CCN1CC(F)(F)F (centres unmarked)	0.5181%	-8.245%	-9.163%	32.41%	10.64%	1.707%
CCc1ncc(C(=O)NCCNC(=O)Cc2ccc(F)cc2)s1	5.804%	-9.82%	-5.315%	-6.278%	18.45%	2.131%
CNC(=O)Cc1ccc(NC(=O)NCC(C)c2ncc(C)s2)cc1 (centres unmarked)	6.265%	-13.23%	-2.854%	5.62%	10.85%	-1.888%
CN1CCOC(C(=O)Nc2ccc3c(c2)nc(C2CC2)n3C)C1 (centres unmarked)	2.823%	-24.36%	-2.196%	-5.398%	5.263%	-6.341%
CCc1ocnc1C(=O)N1CCOC(c2nc(C(C)C)n[nH]2)C1 (centres unmarked)	0.1215%	-4.248%	-3.975%	-	13.04%	3.215%
Cc1ccc(CCC(=O)N(C)CCN2CCOCC2)c(C)c1	2.564%	-34.54%	2.721%	-0.6536%	8.571%	-3.284%
O=C(O)C(F)(F)F.O=C(c1cocn1)N1CCC2(CC1)COC(COCc1ccccn1)C2 (centres unmarked)	-	-	-	6.107%	-	-
CCN(Cc1cnn(C)c1)C(=O)c1ccccc1O	4.126%	-7.593%	-4.108%	2.086%	2.632%	-2.178%
O=C(O)C(F)(F)F.O=C(O)C(F)(F)F.c1ccc(CO[C@H]2CO[C@@]3(CCN(Cc4ccoc4)C3)C2)nc1	-	-	-	-5.14%	-	-
COC(=O)c1ccc2nc(CO[C@H]3CN(CC4CC4)C[C@H]3F)[nH]c2c1	8.055%	-6.656%	-9.923%	-2.256%	13.51%	-5.111%
Cn1nccc1C1CCN(Cc2cnn(-c3ccccc3)n2)CC1	10.84%	5.337%	-10.53%	-2.512%	18.28%	0.859%
COCCn1ccc2c(NC(=O)c3n[nH]c4c3CCCC4)cccc21	4.01%	-13.1%	-8.019%	-	15.22%	-24.28%
COc1ccc(F)cc1CN1CCCC1Cn1nc(C)nc1C (centres unmarked)	-7.775%	-9.157%	-18.45%	7.112%	11.97%	5.508%
CCc1ccccc1CNC(=O)CNC(=O)C(C)(C)C	-3.512%	-19.26%	5.215%	-9.422%	8.219%	0.7802%
CC(=O)N1CCN(CC(=O)NCCCN(C)c2ccccc2)CC1	-4.555%	-26.65%	7.245%	-12.85%	-3.125%	2.062%
CC(C)c1nnc2n1CC(CNCc1nnc(C(C)(C)C)o1)CC2 (centres unmarked)	-1.946%	-17.83%	5.635%	6.25%	-4.505%	2.849%
CC(CS(C)(=O)=O)NCc1cc(Cl)ccc1F (centres unmarked)	-1.408%	6.128%	-3.739%	-3.525%	-12.82%	4.749%
Cc1ccc2nc(CN(Cc3ccc(C#N)cc3)C(C)C)cc(=O)n2c1	8.884%	-5.822%	15.12%	-11.93%	38.36%	5.462%
Cc1noc(C)c1CN1CCCC1c1c(C)nn(C)c1Cl (centres unmarked)	-0.1304%	-1.579%	1.521%	-23.09%	20.18%	-9.134%
Cl.NC(=O)C1CN(c2ccc(F)cc2)CCN1 (centres unmarked)	-	-	-	18.72%	-	-
O=C(CS(=O)(=O)Cc1ccc(F)cc1)NCc1ccccc1F	-0.4878%	-	-17.45%	17.75%	27.2%	-0.301%
Cn1cnc2c1CCN(Cc1noc(-c3ccccc3)n1)C2	8.514%	-36.9%	-1.752%	-13.37%	16.67%	2.827%
CNC(=O)c1cnc2n1CCN(Cc1cccnc1)C2.O=C(O)C(F)(F)F.O=C(O)C(F)(F)F.O=C(O)C(F)(F)F	-	-	-	1.136%	-	-
CC(C)c1nn(C)c(N(C)C)c1CNCC(O)c1ccccc1F (centres unmarked)	-0.4819%	-4.663%	17.72%	-0.6353%	13.7%	2.478%
CCn1cc(NC(=O)NCC(c2ccc(OC)cc2)N(C)C)cn1 (centres unmarked)	5.196%	-17.87%	-15.86%	-1.319%	19.64%	-3.578%
C1CC(CN2CC[C@@H]3O[C@@H](c4nnc(C5CC5)o4)C[C@H]3C2)CCO1	-3.083%	-3.808%	-14.02%	-	0%	-13.03%
Cc1nc(NC(=O)C2CCCN(C(=O)C3CC3)C2)sc1C (centres unmarked)	4.762%	-12.07%	9.224%	2.09%	16.96%	-1.398%
Cc1n[nH]c(C)c1CCC(=O)N1CCC(O)(CN2CCN(C)CC2)C1 (centres unmarked)	-2.365%	5.003%	-8.409%	-17.43%	17.39%	-5.252%
COc1cccc(COCC(=O)NC(C)c2nnc3n2CCC3)c1 (centres unmarked)	0.4854%	-11.86%	7.304%	-3.885%	16.87%	-5.02%
O=C(O)C(F)(F)F.O=C(O)C(F)(F)F.[H][C@@]12CCCO[C@]1([H])[C@H](N(C)Cc1ccco1)CN(CCOC)C2	-	-	-	-3.161%	-	-
O=C(CCc1nc(Cl)n[nH]1)NC1CCCN(C2Cc3ccccc3C2)C1 (centres unmarked)	0.369%	-18.08%	-8.249%	-	12.9%	1.49%
Cc1cnc(CN(Cc2cccc(O)c2)CC2CC2)cn1	-1.013%	-10.46%	-15.27%	23.24%	5.263%	2.113%
CN1CCN(c2cccc(NC(=O)NCc3csc(N(C)C)n3)c2)C1=O	10.92%	14.86%	-7.977%	7.919%	64.71%	10.44%
Cc1ccc2nc(C3CCCN(CC(C)C)C3)nc(O)c2c1 (centres unmarked)	6.053%	-5.073%	-7.863%	6.226%	-2.759%	-0.7779%
O=C(O)C(F)(F)F.[H][C@]12C[C@H](C(=O)NC)N(C)[C@@]1([H])CN(S(=O)(=O)c1cccc(C)c1)C2	-	-	-	0.5634%	-	-
COCCn1cc(NC(=O)N(CCC(N)=O)Cc2ccccc2)cn1	-0.7371%	-2.408%	-3.818%	8.308%	16.67%	0.6721%
Cc1ccsc1CN(Cc1ccccn1)CC(C)C	0.8439%	-11.38%	-10.25%	2.152%	18.27%	4.171%
O=C(Nc1ccc(Br)cc1F)c1ccc(N2CCCCC2)nn1	-1.789%	-5.212%	10.38%	-0.2068%	12%	-1.877%

The last 5 entries again:

With Cc1ccc2nc(C3CCCN(CC(C)C)C3)nc(O)c2c1 (centres unmarked) the screen gave CoaBC: 6.053%; Pks13 thioesterase: -5.073%; ClpP1P2: -7.863%; Toxoplasma: 6.226%; LiHisRS: -2.759%; MtTrpRS: -0.7779%.
With O=C(O)C(F)(F)F.[H][C@]12C[C@H](C(=O)NC)N(C)[C@@]1([H])CN(S(=O)(=O)c1cccc(C)c1)C2 the screen gave Toxoplasma: 0.5634%.
With COCCn1cc(NC(=O)N(CCC(N)=O)Cc2ccccc2)cn1 the screen gave CoaBC: -0.7371%; Pks13 thioesterase: -2.408%; ClpP1P2: -3.818%; Toxoplasma: 8.308%; LiHisRS: 16.67%; MtTrpRS: 0.6721%.
With Cc1ccsc1CN(Cc1ccccn1)CC(C)C the screen gave CoaBC: 0.8439%; Pks13 thioesterase: -11.38%; ClpP1P2: -10.25%; Toxoplasma: 2.152%; LiHisRS: 18.27%; MtTrpRS: 4.171%.
With O=C(Nc1ccc(Br)cc1F)c1ccc(N2CCCCC2)nn1 the screen gave CoaBC: -1.789%; Pks13 thioesterase: -5.212%; ClpP1P2: 10.38%; Toxoplasma: -0.2068%; LiHisRS: 12%; MtTrpRS: -1.877%.

Data taken from ChEMBL document CHEMBL3988442, “University of Dundee, Small-Polar-MMV Screening Library” (2021).